# End groups of sequences in plain letters are not given here.
# Experiment: general procedure: Fmoc solid-phase peptide synthesis; Fmoc-His(Trt)-Wang resin, H-His(Trt)-2Cl-Trt resin, Fmoc-Asp(OtBu)-Wang resin, Fmoc-Ile-Wang resin, Fmoc-Ser(tBu)-Wang r
# Details: whole synthesis
Sequence,final purity (method not given) [%],crude purity (method not given) [%]
APAIQPVLWTTPPLQHGHRHGLEPCS,90,
DGYMFLKAESKIMFAT,91.6,39
DLHFCRSSIMKPKRDGYMFLKAESK,88,
DLHFCRSSIMKPKRDGYMFLKAESKIMFATLQRSSLWCL,,40
EPHLALQPLQPHADHAHADAPAIQPV,92,
ESKIMFATLQRSSL,97,75
ESKIMFATLQRSSLWC,91.0,41
FLKAESKIMFATLQR,84,35
FLKAESKIMFATLQRS,95.0,62
FLKAESKIMFATLQRSSLWCL,86,66
GPPARVPAVPFDLHFCRSSIMKPKRD,99.5,51
HADHAHADAPAIQPVLWTTPPLQH,94,
KAESKIMFATLQRSSLWCL,96.6,32
KAESKIMFATLQRSSLWCLCSNH,100,
KIMFATLQRSSLWCLCSNH,68.0,31
KKKKKAESKIMFATLQRSSLWCL,82.3,28
KKKKKIMFATLQRSSLWCLCSNH,75.7,49

Sequence,final purity (method not given) [%],crude purity (method not given) [%]
KKKKKPKRDGYMFLKAESKIMFAT,85.7,57
KKKKMFATLQRSSLWCLCSNH,92.7,39
KKKKYMFLKAESKIMFATLQRSS,,45
KPKRDGYMFLKAESKI,98.4,69
KPKRDGYMFLKAESKIMFAT,97.6,41
KPKRDGYMFLKAESKIMFATLQR,92.6,53
KPKRDGYMFLKAESKIMFATLQRSSLWCL,87,42
KPKRDGYMFLKAESKIMFATLQRSSLWCLCSNH,,37
LHFCRSSIMKPKRDGYMFLKAESKI,,37
MFATLQRSSLWCLC,90,57
MFATLQRSSLWCLCSNH,98.7,47
PGRPLQTHVLPEPHLALQPLQPHADHA,95,
PPARVPAVPFDLHFCRSSIMKPKRD,93,
TLQRSSLWCLCSNH,99,60
YMFLKAESKI,85,
YMFLKAESKIMFATLQRSS,95.9,38
YMFLKAESKIMFATLQRSSLWCL,,37

# Same assay, conditions: whole synthesis, scale 5 umol
row,Sequence,final purity (method not given) [%]
1,EPHLALQPL,81
2,GPPARVPAV,81
3,KIMFATLQR,71
4,KPKRDGYMF,73
5,KPKRDGYMFL,71
6,MFLKAESKI,86
7,TLQRSSLWCL,98
8,VLPEPHLAL,100
9,VLWTTPPLQH,85
10,YMFLKAESKI,100

# Same assay, conditions: whole synthesis; run 1
row,Sequence,final purity (method not given) [%]
1,KPKRDGYMFLKAESKIMFATLQRSSLWCLCSNH,96

# Same assay, conditions: whole synthesis; run 2
row,Sequence,final purity (method not given) [% purity]
1,KPKRDGYMFLKAESKIMFATLQRSSLWCLCSNH,95
